This is one part of the list. Small differences around the control level are noise.
Compound: CN[C@@H]1C[C@H]2O[C@@](C)([C@@H]1OC)n1c3ccccc3c3c4c(c5c6ccccc6n2c5c31)C(=O)NC4 [staurosporine]
Assay: log2 fold change of tryptic peptide abundance, ligand vs vehicle (limited proteolysis) (log2 ratio); higher = more trypsin-susceptible (destabilized)
Settings: ligand concentration: 20 uM; sample: mouse liver crude lysate; replicate design: treated separately

The chains behind the UniProt entries cited, without tags or fusion partners. Where a name states a change or a piece, a line headed by the entry shows the natural chain unless it says otherwise.
UniProt Q8K1X4: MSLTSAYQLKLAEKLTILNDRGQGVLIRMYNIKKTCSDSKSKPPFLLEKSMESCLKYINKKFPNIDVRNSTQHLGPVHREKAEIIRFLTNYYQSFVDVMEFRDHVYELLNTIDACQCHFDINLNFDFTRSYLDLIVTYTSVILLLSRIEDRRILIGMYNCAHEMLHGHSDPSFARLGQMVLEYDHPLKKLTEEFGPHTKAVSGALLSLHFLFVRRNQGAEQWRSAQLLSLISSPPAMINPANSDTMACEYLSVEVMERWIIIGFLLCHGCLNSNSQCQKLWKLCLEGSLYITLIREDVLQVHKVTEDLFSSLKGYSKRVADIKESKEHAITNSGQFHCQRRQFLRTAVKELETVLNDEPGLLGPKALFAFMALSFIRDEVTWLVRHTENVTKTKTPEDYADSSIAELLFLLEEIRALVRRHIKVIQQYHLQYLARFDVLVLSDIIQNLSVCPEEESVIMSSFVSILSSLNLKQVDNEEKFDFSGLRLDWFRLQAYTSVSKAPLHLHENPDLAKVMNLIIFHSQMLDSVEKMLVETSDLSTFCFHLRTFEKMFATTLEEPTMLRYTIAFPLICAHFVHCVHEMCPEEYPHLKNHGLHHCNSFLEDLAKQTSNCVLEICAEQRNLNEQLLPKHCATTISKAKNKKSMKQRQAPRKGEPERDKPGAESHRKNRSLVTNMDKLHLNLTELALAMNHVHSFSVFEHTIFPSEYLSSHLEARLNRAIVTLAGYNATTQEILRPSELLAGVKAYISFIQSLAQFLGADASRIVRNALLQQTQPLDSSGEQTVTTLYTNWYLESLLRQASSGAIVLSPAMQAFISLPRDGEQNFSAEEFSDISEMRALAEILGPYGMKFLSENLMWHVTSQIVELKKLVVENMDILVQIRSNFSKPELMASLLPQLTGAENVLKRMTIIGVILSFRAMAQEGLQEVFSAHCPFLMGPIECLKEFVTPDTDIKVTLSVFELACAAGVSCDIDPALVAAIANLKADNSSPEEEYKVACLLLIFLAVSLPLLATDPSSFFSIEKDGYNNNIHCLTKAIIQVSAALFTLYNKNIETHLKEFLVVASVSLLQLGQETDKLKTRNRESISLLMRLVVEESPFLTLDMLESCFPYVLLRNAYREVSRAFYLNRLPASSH
UniProt Q8K4S1: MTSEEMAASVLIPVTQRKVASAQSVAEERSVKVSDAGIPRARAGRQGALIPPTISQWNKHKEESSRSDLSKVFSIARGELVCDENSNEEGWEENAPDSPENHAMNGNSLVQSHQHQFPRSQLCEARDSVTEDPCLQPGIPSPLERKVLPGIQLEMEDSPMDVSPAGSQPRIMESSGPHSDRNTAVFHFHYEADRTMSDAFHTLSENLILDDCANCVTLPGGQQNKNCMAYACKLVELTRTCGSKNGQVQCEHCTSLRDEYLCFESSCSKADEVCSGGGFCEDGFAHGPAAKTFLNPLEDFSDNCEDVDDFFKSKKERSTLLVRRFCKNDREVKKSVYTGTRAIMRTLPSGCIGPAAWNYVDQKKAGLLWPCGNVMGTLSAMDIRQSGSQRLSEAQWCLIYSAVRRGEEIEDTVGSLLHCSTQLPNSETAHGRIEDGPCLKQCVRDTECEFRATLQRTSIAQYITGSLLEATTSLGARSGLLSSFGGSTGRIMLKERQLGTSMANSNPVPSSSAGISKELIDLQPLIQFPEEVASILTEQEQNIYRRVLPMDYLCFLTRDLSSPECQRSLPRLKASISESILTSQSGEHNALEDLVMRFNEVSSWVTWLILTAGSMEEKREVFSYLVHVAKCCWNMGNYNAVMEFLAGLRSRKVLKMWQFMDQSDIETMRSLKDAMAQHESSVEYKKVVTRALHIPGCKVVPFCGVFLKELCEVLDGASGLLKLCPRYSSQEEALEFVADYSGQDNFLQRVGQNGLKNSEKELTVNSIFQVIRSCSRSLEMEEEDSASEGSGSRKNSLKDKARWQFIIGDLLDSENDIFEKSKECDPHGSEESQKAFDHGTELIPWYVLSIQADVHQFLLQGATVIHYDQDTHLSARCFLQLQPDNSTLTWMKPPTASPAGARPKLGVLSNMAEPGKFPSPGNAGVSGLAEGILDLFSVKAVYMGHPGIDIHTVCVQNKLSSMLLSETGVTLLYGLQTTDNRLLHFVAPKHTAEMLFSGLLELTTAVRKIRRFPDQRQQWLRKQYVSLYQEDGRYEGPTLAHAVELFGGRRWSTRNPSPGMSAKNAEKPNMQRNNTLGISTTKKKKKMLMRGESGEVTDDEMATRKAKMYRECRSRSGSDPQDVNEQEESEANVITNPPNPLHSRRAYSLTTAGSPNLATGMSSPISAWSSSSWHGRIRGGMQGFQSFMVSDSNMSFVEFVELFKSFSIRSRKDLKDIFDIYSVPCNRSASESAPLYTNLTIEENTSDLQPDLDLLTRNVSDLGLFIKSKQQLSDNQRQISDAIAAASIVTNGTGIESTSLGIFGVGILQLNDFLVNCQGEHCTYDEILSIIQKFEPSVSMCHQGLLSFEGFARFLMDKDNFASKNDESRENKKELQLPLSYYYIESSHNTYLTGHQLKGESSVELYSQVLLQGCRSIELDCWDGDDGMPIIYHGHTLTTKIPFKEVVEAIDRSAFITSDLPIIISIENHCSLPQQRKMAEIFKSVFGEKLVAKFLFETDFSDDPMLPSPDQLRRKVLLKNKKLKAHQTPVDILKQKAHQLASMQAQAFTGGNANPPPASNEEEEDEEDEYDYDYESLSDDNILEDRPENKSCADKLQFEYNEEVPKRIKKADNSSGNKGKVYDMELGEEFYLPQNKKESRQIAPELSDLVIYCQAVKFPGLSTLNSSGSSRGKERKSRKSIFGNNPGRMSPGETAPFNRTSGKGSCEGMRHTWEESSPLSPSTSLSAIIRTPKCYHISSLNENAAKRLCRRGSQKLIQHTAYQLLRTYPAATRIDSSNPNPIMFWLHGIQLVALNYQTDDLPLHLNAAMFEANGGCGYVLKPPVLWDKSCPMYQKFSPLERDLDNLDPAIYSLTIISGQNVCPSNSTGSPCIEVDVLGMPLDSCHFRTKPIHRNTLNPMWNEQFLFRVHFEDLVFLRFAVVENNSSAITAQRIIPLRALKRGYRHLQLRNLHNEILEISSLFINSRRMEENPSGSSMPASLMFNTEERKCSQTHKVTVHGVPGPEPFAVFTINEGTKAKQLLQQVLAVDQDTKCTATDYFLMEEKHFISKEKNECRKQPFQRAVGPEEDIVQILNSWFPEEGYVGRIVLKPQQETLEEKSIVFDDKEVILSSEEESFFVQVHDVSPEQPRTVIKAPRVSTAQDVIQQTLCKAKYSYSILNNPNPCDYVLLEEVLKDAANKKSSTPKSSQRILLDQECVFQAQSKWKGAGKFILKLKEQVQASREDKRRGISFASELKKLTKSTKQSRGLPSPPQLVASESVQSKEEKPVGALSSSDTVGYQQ
UniProt Q8R0W1: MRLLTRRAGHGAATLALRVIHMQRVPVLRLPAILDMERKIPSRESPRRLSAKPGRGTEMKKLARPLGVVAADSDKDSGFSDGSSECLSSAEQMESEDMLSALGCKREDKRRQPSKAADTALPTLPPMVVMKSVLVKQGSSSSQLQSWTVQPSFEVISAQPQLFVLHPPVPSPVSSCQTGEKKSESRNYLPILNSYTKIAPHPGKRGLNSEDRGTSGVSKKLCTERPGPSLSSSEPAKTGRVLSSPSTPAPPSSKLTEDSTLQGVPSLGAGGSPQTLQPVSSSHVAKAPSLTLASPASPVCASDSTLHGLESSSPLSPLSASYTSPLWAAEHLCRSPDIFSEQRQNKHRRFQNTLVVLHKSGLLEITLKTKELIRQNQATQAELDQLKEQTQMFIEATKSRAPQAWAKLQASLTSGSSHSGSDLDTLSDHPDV
UniProt Q8R050, whole entry: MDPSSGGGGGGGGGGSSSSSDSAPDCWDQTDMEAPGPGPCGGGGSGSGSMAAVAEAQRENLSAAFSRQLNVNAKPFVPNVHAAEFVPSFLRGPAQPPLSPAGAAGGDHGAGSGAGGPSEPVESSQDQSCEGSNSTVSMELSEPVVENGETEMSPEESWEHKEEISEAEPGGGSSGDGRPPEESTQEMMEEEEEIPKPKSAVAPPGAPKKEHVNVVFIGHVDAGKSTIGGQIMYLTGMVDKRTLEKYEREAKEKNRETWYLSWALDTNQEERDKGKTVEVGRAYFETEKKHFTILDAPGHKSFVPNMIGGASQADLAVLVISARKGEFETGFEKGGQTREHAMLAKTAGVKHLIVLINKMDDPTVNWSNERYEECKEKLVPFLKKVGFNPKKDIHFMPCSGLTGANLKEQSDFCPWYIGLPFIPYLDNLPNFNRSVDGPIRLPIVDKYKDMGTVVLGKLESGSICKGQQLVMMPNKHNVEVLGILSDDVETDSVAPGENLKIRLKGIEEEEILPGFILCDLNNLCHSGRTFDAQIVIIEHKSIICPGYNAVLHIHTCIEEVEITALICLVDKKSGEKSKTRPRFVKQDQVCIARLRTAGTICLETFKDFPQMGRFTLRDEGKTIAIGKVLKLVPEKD
UniProt Q8R0J8: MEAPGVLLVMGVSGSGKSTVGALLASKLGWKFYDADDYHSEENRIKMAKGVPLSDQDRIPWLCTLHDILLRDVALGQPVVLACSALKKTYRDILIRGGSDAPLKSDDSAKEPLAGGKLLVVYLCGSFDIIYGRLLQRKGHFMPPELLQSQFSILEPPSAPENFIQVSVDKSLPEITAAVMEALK
UniProt Q8R089: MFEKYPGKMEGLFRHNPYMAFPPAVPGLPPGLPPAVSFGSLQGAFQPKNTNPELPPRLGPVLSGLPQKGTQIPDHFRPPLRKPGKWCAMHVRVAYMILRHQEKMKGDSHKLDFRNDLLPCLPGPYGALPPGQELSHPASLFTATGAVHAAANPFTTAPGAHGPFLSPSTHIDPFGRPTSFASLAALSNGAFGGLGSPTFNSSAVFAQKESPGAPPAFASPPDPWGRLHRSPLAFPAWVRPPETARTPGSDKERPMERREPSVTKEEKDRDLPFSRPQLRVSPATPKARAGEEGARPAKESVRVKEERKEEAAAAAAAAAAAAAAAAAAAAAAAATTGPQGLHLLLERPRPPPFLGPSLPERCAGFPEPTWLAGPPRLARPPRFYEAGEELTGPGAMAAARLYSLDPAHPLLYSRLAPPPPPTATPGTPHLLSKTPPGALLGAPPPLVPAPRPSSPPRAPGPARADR
UniProt Q8K363: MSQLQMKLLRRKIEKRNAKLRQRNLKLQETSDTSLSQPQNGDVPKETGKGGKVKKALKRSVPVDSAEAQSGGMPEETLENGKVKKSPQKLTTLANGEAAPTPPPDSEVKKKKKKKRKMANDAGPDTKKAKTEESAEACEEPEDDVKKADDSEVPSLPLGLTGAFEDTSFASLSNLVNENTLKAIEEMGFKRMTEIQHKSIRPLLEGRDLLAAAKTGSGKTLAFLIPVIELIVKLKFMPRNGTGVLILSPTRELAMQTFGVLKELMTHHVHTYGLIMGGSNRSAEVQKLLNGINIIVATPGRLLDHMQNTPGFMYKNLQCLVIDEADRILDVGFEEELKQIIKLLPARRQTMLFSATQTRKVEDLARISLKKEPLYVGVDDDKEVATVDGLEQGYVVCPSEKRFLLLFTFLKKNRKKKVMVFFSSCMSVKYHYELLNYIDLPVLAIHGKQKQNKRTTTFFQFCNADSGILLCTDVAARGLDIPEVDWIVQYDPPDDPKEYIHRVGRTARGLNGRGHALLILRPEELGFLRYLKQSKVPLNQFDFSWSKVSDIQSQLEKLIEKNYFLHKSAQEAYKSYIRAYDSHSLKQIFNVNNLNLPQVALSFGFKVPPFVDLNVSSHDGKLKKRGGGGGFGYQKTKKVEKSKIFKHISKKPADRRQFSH
UniProt Q8R081: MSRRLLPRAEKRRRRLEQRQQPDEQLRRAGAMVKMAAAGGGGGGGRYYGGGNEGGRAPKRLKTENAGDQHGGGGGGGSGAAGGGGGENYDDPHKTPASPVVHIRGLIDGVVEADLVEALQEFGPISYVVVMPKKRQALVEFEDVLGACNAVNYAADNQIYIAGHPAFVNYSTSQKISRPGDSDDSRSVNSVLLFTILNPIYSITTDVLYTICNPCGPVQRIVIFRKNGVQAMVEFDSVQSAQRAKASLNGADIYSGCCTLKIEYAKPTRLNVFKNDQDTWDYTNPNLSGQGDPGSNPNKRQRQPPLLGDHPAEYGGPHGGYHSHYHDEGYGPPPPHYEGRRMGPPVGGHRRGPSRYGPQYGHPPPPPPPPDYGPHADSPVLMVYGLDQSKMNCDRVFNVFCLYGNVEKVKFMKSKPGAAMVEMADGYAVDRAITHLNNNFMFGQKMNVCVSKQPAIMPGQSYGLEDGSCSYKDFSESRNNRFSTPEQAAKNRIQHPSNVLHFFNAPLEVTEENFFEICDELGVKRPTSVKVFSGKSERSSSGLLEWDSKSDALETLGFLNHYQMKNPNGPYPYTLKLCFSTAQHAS

How did the log2 fold change turn out when “UniProt Q8K1X4 (peptide sequence: AFYLNRLPASSH, peptide start residue: 1123)” was run?
Its log2 fold change is -0.183.

For “UniProt Q8K4S1 (peptide sequence: NNTLGISTTK, peptide start residue: 1073)”, which log2 fold change is on record?
Its log2 fold change is 0.324.

How did the log2 fold change turn out when “UniProt Q8R1X6 (peptide sequence: GLNTDELGQKEEAK, peptide start residue: 30)” was run?
Its log2 fold change is -0.79.

With “UniProt Q8R0W1 (peptide sequence: RFQNTLVVLHK, peptide start residue: 349)” as the target, how does the log2 fold change read?
Its log2 fold change is -0.417.

For “UniProt Q8K4B0 (peptide sequence: KPLEAVLR, peptide start residue: 532)”, which log2 fold change is on record?
The log2 fold change was 0.257.

Which log2 fold change does the source give for “UniProt Q8R050 (peptide sequence: SVDGPIRLPIVDKYK, peptide start residue: 434)” here?
The log2 fold change was -0.405.

With “UniProt Q8R0J8 (peptide sequence: DVALGQPVVLACSALKK, peptide start residue: 72)” as the target, how does the log2 fold change read?
The log2 fold change was 0.151.

How did the log2 fold change turn out when “UniProt Q8R089 (peptide sequence: SPLAFPAWVRPPETAR, peptide start residue: 230)” was run?
Its log2 fold change is 0.0975.

How did the log2 fold change turn out when “UniProt Q8K2F0 (peptide sequence: KADTTTPTTSAITASR, peptide start residue: 244)” was run?
The log2 fold change was -0.199.

“UniProt Q8K363 (peptide sequence: GHALLILRPEELGFLR, peptide start residue: 514)” was tested. Which log2 fold change did it give?
The log2 fold change was 0.211.

“UniProt Q8R081 (peptide sequence: SDALETLGFLNHYQMK, peptide start residue: 550)” was tested. Which log2 fold change did it give?
The log2 fold change was 0.192.
